PubChem BioAssay AID686938 – Drosophila RNAi Screening Center – 2013
In all, the deposit lists about 23,000 reagents; shown is a random part of those with a known target gene and a result. In the full data, 75 (0.33%) are marked active. 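Raw plate signals without normalisation; calls rest on plate z-scores that were not deposited; ratio present for only 364 wells.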 A number with no mark means an inactive call. Reagents against one gene are numbered here. No sequences are given here. The record does not give: the dose of the treatment.

- Test: 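Fly genes required for calcium entry once internal stores are emptied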 (primary screen)
- Cells: Drosophila S2R+ cells
- Knock-down reagent: long dsRNA against Drosophila genes, about 0.25 µg dsRNA per well, roughly 10,000 cells
- Duration: 5 days of knock-down before the calcium assay
- Challenge: thapsigargin (SERCA pump blocker) to empty calcium stores; entry signal taken 4 min after adding it
- Read-out: 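Per-well fluo-4 fluorescence in two replicates, unnormalised, measured in resting cells and 4 min after store depletion by the SERCA blocker thapsigargin; ratio of the two present in few wells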
- Scale: calcium entry signal: higher = stronger calcium signal after store depletion; resting calcium signal: higher = higher resting calcium signal
- Active means: 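Called when the plate z-score of the entry-to-rest ratio, mean of duplicates, falls below −3; wells with low overall dye signal (Fmax z below −2) or more than five off-targets excluded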
- Meaning of the calls: active = strongly reduced calcium entry; inactive = no strong reduction

gene knocked down,dsRNA no.,"calcium entry signal, replicate 1 (fluorescence units)","calcium entry signal, replicate 2 (fluorescence units)","resting calcium signal, replicate 1 (fluorescence units)","resting calcium signal, replicate 2 (fluorescence units)"
Hat1,1,4.61e7,3.21e7,2.04e7,1.61e7
SdhAL,1,5.82e7,4.42e7,3.89e7,1.78e7
mRpS23,1,4.25e7,4.70e7,1.81e7,1.83e7
CG14187,1,3.13e7,5.00e7,1.55e7,2.11e7
CG43121,1,3.28e7,4.45e7,1.51e7,2.86e7
CG6040,1,3.02e7,2.63e7,1.40e7,1.19e7
CG5068,1,3.98e7,3.17e7,2.79e7,1.48e7
par-1,1,1.74e7,4.65e7,1.02e7,2.31e7
par-1,2,4.97e7,6.70e7,2.23e7,3.04e7
par-1,3,3.18e7,2.90e7,1.45e7,1.42e7
par-1,4,3.11e7,4.82e7,1.69e7,2.54e7
par-1,5,5.72e7,7.05e7,2.44e7,3.21e7
CG1161,1,1.41e7,1.93e7,8.79e6,1.24e7
CG6763,1,3.51e7,5.13e7,1.92e7,2.18e7

Already shown: 4 of the entries above.
gene knocked down,dsRNA no.,"calcium entry signal, replicate 1 (fluorescence units)","calcium entry signal, replicate 2 (fluorescence units)","resting calcium signal, replicate 1 (fluorescence units)","resting calcium signal, replicate 2 (fluorescence units)"
CG43121,1,3.28e7,4.45e7,1.51e7,2.86e7
CG6040,1,3.02e7,2.63e7,1.40e7,1.19e7
CG5068,1,3.98e7,3.17e7,2.79e7,1.48e7
par-1,1,1.74e7,4.65e7,1.02e7,2.31e7

Further reagents:
gene knocked down,dsRNA no.,"calcium entry signal, replicate 1 (fluorescence units)","calcium entry signal, replicate 2 (fluorescence units)","resting calcium signal, replicate 1 (fluorescence units)","resting calcium signal, replicate 2 (fluorescence units)"
galectin,1,3.66e7,3.74e7,1.65e7,1.54e7
CG1941,1,3.61e7,4.67e7,1.73e7,1.87e7
Or83c,1,4.67e7,4.22e7,2.31e7,1.99e7
CG11263,1,2.61e7,3.84e7,1.36e7,1.65e7
CG1288,1,4.92e7,3.51e7,2.18e7,1.63e7
CG34326 (retired record),1,3.28e7,3.82e7,1.69e7,1.69e7
Pop5,1,2.84e7,5.61e7,1.49e7,2.14e7
shd,1,3.37e7,5.35e7,1.61e7,2.31e7
APP-BP1,1,2.84e7,3.36e7,1.50e7,1.67e7
HipHop,1,3.83e7,4.63e7,1.87e7,3.39e7
Ror,1,3.13e7,3.30e7,1.45e7,1.55e7
CG14731,1,3.55e7,3.88e7,1.83e7,1.98e7
Set1,1,2.46e7,3.41e7,1.54e7,2.18e7
Set1,2,3.39e7,4.00e7,2.39e7,2.52e7
Lrp4,1,3.63e7,4.28e7,1.73e7,1.96e7
CG15237,1,3.58e7,2.47e7,1.72e7,1.14e7
Dred,1,3.13e7,5.29e7,1.52e7,2.32e7
Dred,2,6.88e7,2.91e7,3.05e7,1.52e7
CG13578,1,4.01e7,4.16e7,2.01e7,1.71e7
mRpL2,1,3.69e7,5.08e7,1.69e7,2.13e7
CG17141,1,5.02e7,5.31e7,2.27e7,2.09e7
Vps20,1,3.31e7,2.99e7,1.78e7,1.56e7
cpb,1,4.17e7,,2.26e7,
CG6262,1,5.93e7,4.65e7,2.41e7,2.24e7
CG6262,2,3.62e7,3.21e7,1.82e7,1.62e7
CG13042,1,4.75e7,5.44e7,2.04e7,2.43e7
